Source: article PMC5074368
Results are given in words; binding and its absence hold for the method and conditions named. For part of these data: A result given as binding can be weak or reduced; the word gives no strength.

What was measured:
Test in all cases: two-hybrid; mammalian two-hybrid in CHO cells; myosin VI tail WT and mutants in the bait vector pM, binding partners in the prey vector pVP16; read with a microplate luminometer
[1] = molecular target: Myosin VI globular tail (amino acids 1036–1294) I1252A, in the bait vector pM (human)
[2] = molecular target: Myosin VI globular tail (amino acids 1036–1294) W1253A, in the bait vector pM (human)
[3] = molecular target: Myosin VI globular tail (amino acids 1036–1294) R1108A, in the bait vector pM (human)

binding [1] | binding [2] | binding [3] | Binder
binds |  |  | Dab2 in the prey vector pVP16 (protein, UniProt P98082 1-770) MSNEVETSATNGQPDQQAAPKAPSKKEKKKGPEKTDEYLLARFKGDGVKYKAKLIGIDDVPDARGDKMSQDSMMKLKGMAAAGRSQGQHKQRIWVNISLSGIKIIDEKTGVIEHEHPVNKISFIARDVTDNRAFGYVCGGEGQHQFFAIKTGQQAEPLVVDLKDLFQVIYNVKKKEEEKKKIEEASKAVENGSEALMILDDQTNKLKSGVDQMDLFGDMSTPPDLNSPTESKDILLVDLNSEIDTNQNSLRENPFLTNGITSCSLPRPTPQASFLPENAFSANLNFFPTPNPDPFRDDPFTQPDQSTPSSFDSLKSPDQKKENSSSSSTPLSNGPLNGDVDYFGQQFDQISNRTGKQEAQAGPWPFSSSQTQPAVRTQNGVSEREQNGFSVKSSPNPFVGSPPKGLSIQNGVKQDLESSVQSSPHDSIAIIPPPQSTKPGRGRRTAKSSANDLLASDIFAPPVSEPSGQASPTGQPTALQPNPLDLFKTSAPAPVGPLVGLGGVTVTLPQAGPWNTASLVFNQSPSMAPGAMMGGQPSGFSQPVIFGTSPAVSGWNQPSPFAASTPPPVPVVWGPSASVAPNAWSTTSPLGNPFQSNIFPAPAVSTQPPSMHSSLLVTPPQPPPRAGPPKDISSDAFTALDPLGDKEIKDVKEMFKDFQLRQPPAVPARKGEQTSSGTLSAFASYFNSKVGIPQENADHDDFDANQLLNKINEPPKPAPRQVSLPVTKSTDNAFENPFFKDSFGSSQASVASSQPVSSEMYRDPFGNPFA
 | binds | no binding | NDP52 in the prey vector pVP16 (protein, UniProt Q13137 1-446) MEETIKDPPTSAVLLDHCHFSQVIFNSVEKFYIPGGDVTCHYTFTQHFIPRRKDWIGIFRVGWKTTREYYTFMWVTLPIDLNNKSAKQQEVQFKAYYLPKDDEYYQFCYVDEDGVVRGASIPFQFRPENEEDILVVTTQGEVEEIEQHNKELCKENQELKDSCISLQKQNSDMQAELQKKQEELETLQSINKKLELKVKEQKDYWETELLQLKEQNQKMSSENEKMGIRVDQLQAQLSTQEKEMEKLVQGDQDKTEQLEQLKKENDHLFLSLTEQRKDQKKLEQTVEQMKQNETTAMKKQQELMDENFDLSKRLSENEIICNALQRQKERLEGENDLLKRENSRLLSYMGLDFNSLPYQVPTSDEGGARQNPGLAYGNPYSGIQESSSPSPLSIKKCPICKADDICDHTLEQQQMQPLCFNCPICDKIFPATEKQIFEDHVFCHSL
